From paper PMC6238587
Substitutions are numbered along the chain they refer to. These are yes or no findings as the source states them, for the method shown. Binding seen in cells or lysates may run through a third protein. Some entries that bind do so weakly or less than the wild type. For some assays here: Where a sequence is shown, tags or fusion partners need not be part of it.

By UniProt entry, the sequences of proteins in these tests, tags left out. Residues count along the entry.
UniProt P07237, residues 18-508: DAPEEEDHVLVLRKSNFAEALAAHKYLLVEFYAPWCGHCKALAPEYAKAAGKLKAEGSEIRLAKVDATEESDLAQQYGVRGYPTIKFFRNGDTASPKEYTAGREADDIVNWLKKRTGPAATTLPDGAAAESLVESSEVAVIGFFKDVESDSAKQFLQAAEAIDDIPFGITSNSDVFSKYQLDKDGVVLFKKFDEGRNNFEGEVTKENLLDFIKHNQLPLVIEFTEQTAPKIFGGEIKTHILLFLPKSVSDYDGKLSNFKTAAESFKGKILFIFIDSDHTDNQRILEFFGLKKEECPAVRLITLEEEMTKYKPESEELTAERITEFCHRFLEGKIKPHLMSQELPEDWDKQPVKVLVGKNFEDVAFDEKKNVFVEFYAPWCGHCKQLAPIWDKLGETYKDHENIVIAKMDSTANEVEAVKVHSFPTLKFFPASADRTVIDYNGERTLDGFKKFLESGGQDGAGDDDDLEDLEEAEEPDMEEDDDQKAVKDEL

How the values were obtained:
Assay in all cases: pull-down; small-scale: His-tagged Ero1 variant co-expressed with PDI in E. coli; cleared lysate on HisPur cobalt agarose, wash 50 mM sodium phosphate pH 7.3, 300 mM NaCl, 15 mM imidazole; reducing SDS–PAGE of eluates
[1] = molecular target: human Ero1α C104A/C131A, N-terminal His tag (human) (UniProt Q96HE7)
[2] = molecular target: T1, human Ero1β C90/95A, N-terminal His tag (human) (UniProt Q86YB8)
T1 sequence: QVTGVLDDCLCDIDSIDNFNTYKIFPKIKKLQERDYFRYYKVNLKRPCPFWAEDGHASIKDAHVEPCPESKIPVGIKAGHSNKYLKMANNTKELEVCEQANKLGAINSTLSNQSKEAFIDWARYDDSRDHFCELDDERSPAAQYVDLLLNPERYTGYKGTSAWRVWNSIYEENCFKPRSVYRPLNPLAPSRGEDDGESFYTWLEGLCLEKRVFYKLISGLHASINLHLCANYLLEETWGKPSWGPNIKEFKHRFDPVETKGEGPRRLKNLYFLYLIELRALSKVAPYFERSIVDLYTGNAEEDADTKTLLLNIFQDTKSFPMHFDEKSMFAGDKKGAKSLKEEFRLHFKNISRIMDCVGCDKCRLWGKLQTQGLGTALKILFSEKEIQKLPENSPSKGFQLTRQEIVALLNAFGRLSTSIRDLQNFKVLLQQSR

[3] = molecular target: T2, human Ero1α C94A/C99A, N-terminal His tag (human) (UniProt Q96HE7)
T2 sequence: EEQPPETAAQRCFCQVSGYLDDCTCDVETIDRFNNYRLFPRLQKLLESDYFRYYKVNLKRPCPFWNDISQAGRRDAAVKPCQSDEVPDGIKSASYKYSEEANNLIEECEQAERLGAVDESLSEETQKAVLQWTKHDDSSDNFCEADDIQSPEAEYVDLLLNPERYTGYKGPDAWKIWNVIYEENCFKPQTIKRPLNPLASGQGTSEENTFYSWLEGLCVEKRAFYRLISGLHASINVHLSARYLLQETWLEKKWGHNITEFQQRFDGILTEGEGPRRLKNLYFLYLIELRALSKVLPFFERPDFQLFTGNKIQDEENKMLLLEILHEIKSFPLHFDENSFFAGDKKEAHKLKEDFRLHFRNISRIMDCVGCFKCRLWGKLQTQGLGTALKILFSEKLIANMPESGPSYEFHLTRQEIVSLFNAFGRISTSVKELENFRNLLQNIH

[4] = molecular target: T3, human Ero1α C99A/C104A, N-terminal His tag (human) (UniProt Q96HE7)
T3 sequence: T2 sequence with A71C, C81A

[5] = molecular target: T4, human Ero1β with all four outer active site and regulatory cysteines mutated (C90, C95, C100, C130 to alanine), N-terminal His tag (human) (UniProt Q86YB8)
T4 sequence: T1 sequence with C67A, C97A

[6] = molecular target: T5, human Ero1α C94A/C99A/C104A/C131A, N-terminal His tag (human) (UniProt Q96HE7)
T5 sequence: T2 sequence with C81A, C108A

[7] = molecular target: human Ero1β C100/130A, N-terminal His tag (human) (UniProt Q86YB8)
[8] = molecular target: T6, human Ero1β C95/100A, N-terminal His tag (human) (UniProt Q86YB8)
T6 sequence: T1 sequence with A57C, C67A

Measured: binding

human protein disulfide isomerase (PDI), wild type, co-expressed CyDisCo component (from UniProt P07237 18-508) (enzyme)
binds: all assays above
